The assay concerns the target Full-length Rai1 in pCMV-3xFLAG (mouse) (UniProt Q61818). As to the kind of experiment: co-IP; lysate of co-transfected HEK293 cells; 3xFLAG-Rai1 purified with EZview FLAG-M2 beads; western blot with rat anti-HA. In general terms: Immunoblotting shows a protein as a band on a membrane.

Sequences of proteins named here, by UniProt entry; tags and fusion partners are left off.
UniProt Q61818: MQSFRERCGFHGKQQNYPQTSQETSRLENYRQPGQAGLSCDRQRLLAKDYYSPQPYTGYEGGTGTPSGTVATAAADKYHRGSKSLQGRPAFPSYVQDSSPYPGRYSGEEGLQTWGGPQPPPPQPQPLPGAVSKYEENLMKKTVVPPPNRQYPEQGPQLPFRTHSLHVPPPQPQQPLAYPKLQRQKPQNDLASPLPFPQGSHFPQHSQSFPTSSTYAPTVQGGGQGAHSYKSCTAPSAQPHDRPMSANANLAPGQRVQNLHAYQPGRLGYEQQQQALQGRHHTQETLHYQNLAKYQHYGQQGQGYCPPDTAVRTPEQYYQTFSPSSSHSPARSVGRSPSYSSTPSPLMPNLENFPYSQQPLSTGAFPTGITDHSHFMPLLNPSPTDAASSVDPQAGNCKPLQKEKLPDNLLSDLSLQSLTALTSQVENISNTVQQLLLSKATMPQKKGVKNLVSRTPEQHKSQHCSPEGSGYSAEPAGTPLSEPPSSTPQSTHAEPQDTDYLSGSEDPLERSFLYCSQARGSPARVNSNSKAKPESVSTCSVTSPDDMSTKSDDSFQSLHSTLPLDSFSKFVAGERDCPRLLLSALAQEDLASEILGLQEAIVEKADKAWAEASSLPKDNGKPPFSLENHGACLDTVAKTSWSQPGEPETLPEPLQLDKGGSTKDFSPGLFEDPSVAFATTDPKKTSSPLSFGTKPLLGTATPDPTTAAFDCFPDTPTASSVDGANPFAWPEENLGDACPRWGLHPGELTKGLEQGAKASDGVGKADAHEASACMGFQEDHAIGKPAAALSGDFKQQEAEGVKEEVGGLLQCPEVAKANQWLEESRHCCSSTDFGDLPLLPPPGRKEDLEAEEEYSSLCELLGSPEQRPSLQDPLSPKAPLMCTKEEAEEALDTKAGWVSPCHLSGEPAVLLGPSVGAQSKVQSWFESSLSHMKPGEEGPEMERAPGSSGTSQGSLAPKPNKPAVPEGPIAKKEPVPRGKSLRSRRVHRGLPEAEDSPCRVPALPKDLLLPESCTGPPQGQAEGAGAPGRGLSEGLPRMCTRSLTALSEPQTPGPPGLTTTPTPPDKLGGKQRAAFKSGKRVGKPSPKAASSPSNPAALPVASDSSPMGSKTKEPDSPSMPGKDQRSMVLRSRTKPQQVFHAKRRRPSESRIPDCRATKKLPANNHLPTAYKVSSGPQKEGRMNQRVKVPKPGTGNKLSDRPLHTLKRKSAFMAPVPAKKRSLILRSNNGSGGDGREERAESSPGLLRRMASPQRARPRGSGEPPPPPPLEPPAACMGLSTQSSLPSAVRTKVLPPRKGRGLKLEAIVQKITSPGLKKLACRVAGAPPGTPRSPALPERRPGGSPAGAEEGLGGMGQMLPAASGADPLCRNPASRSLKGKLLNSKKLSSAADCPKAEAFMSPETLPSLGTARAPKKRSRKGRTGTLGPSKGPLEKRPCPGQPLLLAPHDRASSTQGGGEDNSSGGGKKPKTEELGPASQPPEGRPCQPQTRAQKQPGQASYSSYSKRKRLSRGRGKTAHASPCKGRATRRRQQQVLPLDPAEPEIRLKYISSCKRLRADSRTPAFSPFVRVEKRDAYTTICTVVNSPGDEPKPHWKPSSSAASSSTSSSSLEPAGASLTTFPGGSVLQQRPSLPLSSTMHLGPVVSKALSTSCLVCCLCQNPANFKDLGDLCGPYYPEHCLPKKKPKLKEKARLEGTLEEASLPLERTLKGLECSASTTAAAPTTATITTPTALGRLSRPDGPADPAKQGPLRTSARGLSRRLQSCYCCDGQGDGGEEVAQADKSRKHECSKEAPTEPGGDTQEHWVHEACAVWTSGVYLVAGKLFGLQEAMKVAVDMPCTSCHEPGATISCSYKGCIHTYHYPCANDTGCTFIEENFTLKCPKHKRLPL

No constants are given. Whether binding was seen depends on the method and setting. In cells and extracts the contact can be indirect. Some binding calls cover weakened binding; strength is not graded here. Tags and fused reporters may be left off the sequences shown.

B1: ZBTB17/MIZ1 in pCMV-HA (protein, UniProt Q13105 1-803)
chain: MDFPQHSQHVLEQLNQQRQLGLLCDCTFVVDGVHFKAHKAVLAACSEYFKMLFVDQKDVVHLDISNAAGLGQVLEFMYTAKLSLSPENVDDVLAVATFLQMQDIITACHALKSLAEPATSPGGNAEALATEGGDKRAKEEKVATSTLSRLEQAGRSTPIGPSRDLKEERGGQAQSAASGAEQTEKADAPREPPPVELKPDPTSGMAAAEAEAALSESSEQEMEVEPARKGEEEQKEQEEQEEEGAGPAEVKEEGSQLENGEAPEENENEESAGTDSGQELGSEARGLRSGTYGDRTESKAYGSVIHKCEDCGKEFTHTGNFKRHIRIHTGEKPFSCRECSKAFSDPAACKAHEKTHSPLKPYGCEECGKSYRLISLLNLHKKRHSGEARYRCEDCGKLFTTSGNLKRHQLVHSGEKPYQCDYCGRSFSDPTSKMRHLETHDTDKEHKCPHCDKKFNQVGNLKAHLKIHIADGPLKCRECGKQFTTSGNLKRHLRIHSGEKPYVCIHCQRQFADPGALQRHVRIHTGEKPCQCVMCGKAFTQASSLIAHVRQHTGEKPYVCERCGKRFVQSSQLANHIRHHDNIRPHKCSVCSKAFVNVGDLSKHIIIHTGEKPYLCDKCGRGFNRVDNLRSHVKTVHQGKAGIKILEPEEGSEVSVVTVDDMVTLATEALAATAVTQLTVVPVGAAVTADETEVLKAEISKAVKQVQEEDPNTHILYACDSCGDKFLDANSLAQHVRIHTAQALVMFQTDADFYQQYGPGGTWPAGQVLQAGELVFRPRDGAEGQPALAETSPTAPECPPPAE
Regarding B1, the binding result is “binds”.

For the origin of these results see publication PMC5088687.
